The series in a line: general procedure: Fmoc solid-phase peptide synthesis; PEGA resin; Fmoc-Lys(Mtt)-Wang resin; Fmoc-Leu-Wang resin; HBTU/NMM; Hobt/DIC. As to conditions: conjugation step.

Our source for the conjugation yield values is patent US7906477B2 (Genspera, Inc., priority 2002, dated 2011).

In the case of acGKAFRRL-12ADT, the conjugation yield is recorded as 60-70%.
